Patent US12318449B2 (Rutgers, The State University of New Jersey, priority 2012, dated 2025)

Key:
[1] = system: stage III and stage IV melanoma; conditions: recent phase 0 trial; cited from earlier work
C8161-luc cells = conditions: 3 weeks of treatment

SMILES: Nc1nc2ccc(OC(F)(F)F)cc2s1 [Riluzole, riluzole]
- clinical and metabolic responses [1]: approximately one third of the patients exhibited remarkable clinical and metabolic responses
- tumor cell growth as indicated by luminescent signal (C8161-luc cells; riluzole (10 mg/kg) plus irradiation (4 Gy)): much less tumor cell growth
- luminescence (photon flux) (C8161-luc cells; riluzole alone (10 mg/kg) compared to vehicle): decreased luminescence
